The values below come from publication PMC5847153.

The chains behind the UniProt entries cited, without tags or fusion partners.
UniProt P48432: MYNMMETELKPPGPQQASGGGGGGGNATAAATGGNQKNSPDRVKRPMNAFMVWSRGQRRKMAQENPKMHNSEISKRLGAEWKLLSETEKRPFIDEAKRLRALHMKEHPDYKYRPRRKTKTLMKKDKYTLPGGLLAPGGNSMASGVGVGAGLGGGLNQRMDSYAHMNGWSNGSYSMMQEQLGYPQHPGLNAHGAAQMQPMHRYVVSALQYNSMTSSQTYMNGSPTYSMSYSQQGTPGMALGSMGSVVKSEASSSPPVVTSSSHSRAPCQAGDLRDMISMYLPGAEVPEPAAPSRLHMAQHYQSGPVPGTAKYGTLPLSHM
UniProt Q9DBR0: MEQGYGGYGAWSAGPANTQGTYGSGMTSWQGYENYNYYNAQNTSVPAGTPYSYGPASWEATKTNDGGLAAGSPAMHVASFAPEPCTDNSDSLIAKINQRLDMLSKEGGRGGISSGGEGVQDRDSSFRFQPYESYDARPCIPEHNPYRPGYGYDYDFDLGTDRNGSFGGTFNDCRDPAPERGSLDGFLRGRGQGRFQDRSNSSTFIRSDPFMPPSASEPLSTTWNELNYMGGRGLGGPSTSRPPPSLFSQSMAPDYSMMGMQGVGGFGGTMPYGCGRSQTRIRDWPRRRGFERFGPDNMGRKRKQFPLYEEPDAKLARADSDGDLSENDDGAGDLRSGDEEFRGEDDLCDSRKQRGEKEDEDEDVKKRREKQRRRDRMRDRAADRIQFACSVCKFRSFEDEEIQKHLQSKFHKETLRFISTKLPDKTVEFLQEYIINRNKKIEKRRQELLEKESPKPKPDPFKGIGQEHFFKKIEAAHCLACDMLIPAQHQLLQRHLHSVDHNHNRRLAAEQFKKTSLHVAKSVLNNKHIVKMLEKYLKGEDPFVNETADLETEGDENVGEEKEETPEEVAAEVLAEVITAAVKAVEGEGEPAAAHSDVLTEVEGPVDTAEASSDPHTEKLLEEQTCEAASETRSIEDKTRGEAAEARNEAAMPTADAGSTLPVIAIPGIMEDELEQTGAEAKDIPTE
UniProt D3YXK2: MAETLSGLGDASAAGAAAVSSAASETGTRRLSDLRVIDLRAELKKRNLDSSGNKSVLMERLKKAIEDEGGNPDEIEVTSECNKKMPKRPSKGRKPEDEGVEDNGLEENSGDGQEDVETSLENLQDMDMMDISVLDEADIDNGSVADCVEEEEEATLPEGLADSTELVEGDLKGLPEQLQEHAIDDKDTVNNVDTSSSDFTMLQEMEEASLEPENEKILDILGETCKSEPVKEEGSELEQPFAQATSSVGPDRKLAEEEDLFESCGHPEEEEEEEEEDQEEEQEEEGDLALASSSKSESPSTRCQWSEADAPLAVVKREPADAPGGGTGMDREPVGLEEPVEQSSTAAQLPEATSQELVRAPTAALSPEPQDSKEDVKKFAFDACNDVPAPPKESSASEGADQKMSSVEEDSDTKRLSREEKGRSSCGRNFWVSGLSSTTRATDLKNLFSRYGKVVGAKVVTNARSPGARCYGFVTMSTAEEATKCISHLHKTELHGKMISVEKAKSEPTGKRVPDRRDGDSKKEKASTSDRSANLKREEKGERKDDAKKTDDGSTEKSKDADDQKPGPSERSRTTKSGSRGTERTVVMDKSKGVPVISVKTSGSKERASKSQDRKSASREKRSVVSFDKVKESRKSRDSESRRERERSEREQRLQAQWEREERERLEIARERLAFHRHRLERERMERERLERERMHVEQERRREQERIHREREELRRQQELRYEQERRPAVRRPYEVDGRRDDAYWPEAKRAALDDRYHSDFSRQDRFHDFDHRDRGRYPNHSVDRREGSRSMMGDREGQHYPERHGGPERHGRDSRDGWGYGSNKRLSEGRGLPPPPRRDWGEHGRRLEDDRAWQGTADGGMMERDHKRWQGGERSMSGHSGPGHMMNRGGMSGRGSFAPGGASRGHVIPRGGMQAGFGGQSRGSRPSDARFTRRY

Results are given in words; binding and its absence hold for the method and conditions named. Binding seen in cells or lysates may run through a third protein. These calls come from enrichment with a bait or labelling near it, and not all partners need be listed.

The assay deals with bioSox2 (bio-TEV-Sox2), biotinylated by birA (mouse) (UniProt P48432). Put plainly: affinity purification with mass spectrometry; bioSox2 complexes from nuclear extracts of E18.5 lungs of bioSox2/birA mice held on streptavidin Dynabeads M-280, 4 °C, wash with 100 mM KCl and 0.02% NP-40; birA-only mice as control; MALDI-TOF MS; in triplicate.

For Akap8 (from UniProt Q9DBR0 1-687), the binding entry is reported as “binds”. “Scaffold attachment factor B1 (from UniProt D3YXK2 1-937)”: the binding entry is reported as “binds”.
